PubChem BioAssay AID1259254 | NCATS, 2017

Aim: 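Genome-wide screen for genes that prevent DNA re-replication in cancer cells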 (primary screen)
Cell system: human HCT116 colorectal cancer cells
Knock-down reagent: single siRNA against human genes
Duration: 3 days
Measurement: 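Nuclei stained with Hoechst and imaged; cell-cycle phase assigned by DNA content; G2 share scaled per plate, non-targeting siRNA 0%, GMNN siRNA 100%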
Reading the numbers: G2 robust z-score and G2 cells, % of GMNN control: higher = more G2 cells, more excess DNA replication
Active means: 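Active siRNAs have a G2 robust z of 5 or more median absolute deviations over the median, which in these data means about 38% or higher of GMNN control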
Shown is an unselected part of about 59,000 reagents tested. In the full data, about 1,550 (2.6%) were called active. 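G2 share is only a proxy for re-replication; each gene was hit by three separate siRNAs, and active genes were retested.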 Unmarked entries are inactive. The numbers tell different reagents against one gene apart. Not all columns of the deposit are shown. No sequences are given here. Not given: the amount of reagent.

| target gene | reagent | G2 robust z-score | G2 cells, % of GMNN control |
| --- | --- | --- | --- |
| ECM1 | 1 | 1.29 | 12 |
| ECM1 | 2 | -0.285 | 0.96 |
| ECM1 | 3 | -0.248 | 1.22 |
| SERINC3 | 1 | -0.348 | 0.516 |
| SERINC3 | 2 | -0.927 | -3.55 |
| SERINC3 | 3 | 0.868 | 9.07 |
| MAP7 | 1 | 0.0313 | 3.19 |
| MAP7 | 2 | -1.21 | -5.53 |
| MAP7 | 3 | -0.164 | 1.81 |
| KPNB1 | 1 | 2.47 | 20.3 |
| KPNB1 | 2 | 2.44 | 20.1 |
| KPNB1 | 3 | 1.45 | 13.1 |

Entries listed so far whose gene name begins with M or m:
| target gene | reagent | G2 robust z-score | G2 cells, % of GMNN control |
| --- | --- | --- | --- |
| MAP7 | 1 | 0.0313 | 3.19 |
| MAP7 | 2 | -1.21 | -5.53 |
| MAP7 | 3 | -0.164 | 1.81 |

Next results follow.
| target gene | reagent | G2 robust z-score | G2 cells, % of GMNN control |
| --- | --- | --- | --- |
| MED23 | 1 | 1.17 | 11.2 |
| MED23 | 2 | -0.847 | -2.99 |
| MED23 | 3 | -1.14 | -5.06 |
| NLN | 1 | 0.868 | 9.07 |
| NLN | 2 | 1.6 | 14.3 |
| NLN | 3 | -0.0991 | 2.27 |
| DDX47 | 1 | 0.525 | 6.66 |
| DDX47 | 2 | 1.43 | 13 |
| DDX47 | 3 | 0.267 | 4.85 |
| SPINT4 | 1 | -1.32 | -6.31 |
| SPINT4 | 2 | 5.54 (active) | 41.9 |
| SPINT4 | 3 | 0.93 | 9.51 |
| ZNF280D | 1 | 2.65 | 21.6 |
| ZNF280D | 2 | -0.904 | -3.39 |
| ZNF280D | 3 | -0.57 | -1.04 |
| IFNA5 | 1 | -0.725 | -2.13 |
| IFNA5 | 2 | -0.0825 | 2.39 |
| IFNA5 | 3 | 0.491 | 6.42 |
